# The list shows a part of the results.
# B1: M6PR (Bos taurus), P11456 (protein)
# chain: MMSPLHSSWRTGLLLLLLFSVAVRESWQTEEKTCDLVGEKGKESEKELALLKRLTPLFNKSFESTVGQSPDMYSYVFRVCREAGNHSSGAGLVQINKSNGKETVVGRFNETQIFNGSNWIMLIYKGGDEYDNHCGREQRRAVVMISCNRHTLADNFN
# Experiments:
# Assay in all cases: glycan array binding signal (z-score within array); higher = stronger binding
# Conditions in all cases: glycan notation: IUPAC condensed, linker removed
# Neu5Ac(a2-3)Gal(b1-4)Glc = molecular target: Neu5Ac(a2-3)Gal(b1-4)Glc
# In short: (§1)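 The binding signal is a Z-score computed within each array. Data were drawn from 3228 arrays in the Consortium for Functional Glycomics database, restricted to those with a known protein sequence. Scores were averaged over arrays of the same protein sequence at different concentrations or buffers, and over linkers, and negative values can be taken as non-binding.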
# [1] = molecular target: Neu5Ac(a2-3)Gal(b1-4)GlcNAc
# In short: as §1
# [2] = molecular target: Neu5Ac(a2-3)Gal(b1-4)GlcNAc(b1-3)Gal(b1-3)GlcNAc
# In short: as §1
# [3] = molecular target: Neu5Ac(a2-3)Gal(b1-4)GlcNAc(b1-3)Gal(b1-4)GlcNAc
# In short: as §1
# [4] = molecular target: Neu5Ac(a2-3)Gal(b1-4)GlcNAc(b1-3)Gal(b1-4)GlcNAc(b1-3)Gal(b1-4)GlcNAc
# In short: as §1
# [5] = molecular target: Neu5Ac(a2-3)Gal(b1-4)GlcNAc(b1-3)Gal(b1-4)[Fuc(a1-3)]GlcNAc
# In short: as §1
# [6] = molecular target: Neu5Ac(a2-3)Gal(b1-4)GlcNAc(b1-6)[Gal(b1-3)]GalNAc
# In short: as §1
# [7] = molecular target: Neu5Ac(a2-3)Gal(b1-4)GlcNAc6S
# In short: as §1
# [8] = molecular target: Neu5Ac(a2-3)Gal(b1-4)[Fuc(a1-3)]GlcNAc
# In short: as §1
# [9] = molecular target: Neu5Ac(a2-3)Gal(b1-4)[Fuc(a1-3)]GlcNAc(b1-3)Gal
# In short: as §1
# [10] = molecular target: Neu5Ac(a2-3)Gal(b1-4)[Fuc(a1-3)]GlcNAc(b1-3)Gal(b1-4)GlcNAc
# In short: as §1
# [11] = molecular target: Neu5Ac(a2-3)Gal(b1-4)[Fuc(a1-3)]GlcNAc(b1-3)Gal(b1-4)[Fuc(a1-3)]GlcNAc(b1-3)Gal(b1-4)[Fuc(a1-3)]GlcNAc
# In short: as §1
# [12] = molecular target: Neu5Ac(a2-3)Gal(b1-4)[Fuc(a1-3)]GlcNAc6S
# In short: as §1
# [13] = molecular target: Neu5Ac(a2-3)Gal6S(b1-4)GlcNAc
# In short: as §1
# [14] = molecular target: Neu5Ac(a2-3)Gal6S(b1-4)[Fuc(a1-3)]GlcNAc
# In short: as §1
# Neu5Ac(a2-3)GalNAc = molecular target: Neu5Ac(a2-3)GalNAc
# In short: as §1
# [15] = molecular target: Neu5Ac(a2-3)GalNAc(b1-4)GlcNAc
# In short: as §1
# [16] = molecular target: Neu5Ac(a2-3)[GalNAc(b1-4)]Gal(b1-4)Glc
# In short: as §1
# [17] = molecular target: Neu5Ac(a2-3)[GalNAc(b1-4)]Gal(b1-4)GlcNAc
# In short: as §1
# [18] = molecular target: Neu5Ac(a2-3)[Neu5Ac(a2-6)]GalNAc
# In short: as §1
# Neu5Ac(a2-6)Gal = molecular target: Neu5Ac(a2-6)Gal
# In short: as §1
# Neu5Ac(a2-6)Gal(b1-4)Glc = molecular target: Neu5Ac(a2-6)Gal(b1-4)Glc
# In short: as §1
# [19] = molecular target: Neu5Ac(a2-6)Gal(b1-4)GlcNAc
# In short: as §1
# [20] = molecular target: Neu5Ac(a2-6)Gal(b1-4)GlcNAc(b1-2)Man(a1-3)[Neu5Ac(a2-6)Gal(b1-4)GlcNAc(b1-2)Man(a1-6)]Man(b1-4)GlcNAc(b1-4)GlcNAc
# In short: as §1
# [21] = molecular target: Neu5Ac(a2-6)Gal(b1-4)GlcNAc(b1-3)Gal(b1-4)GlcNAc
# In short: as §1
# [22] = molecular target: Neu5Ac(a2-6)Gal(b1-4)GlcNAc(b1-3)Gal(b1-4)[Fuc(a1-3)]GlcNAc(b1-3)Gal(b1-4)[Fuc(a1-3)]GlcNAc
# In short: as §1
# [23] = molecular target: Neu5Ac(a2-6)Gal(b1-4)GlcNAc6S
# In short: as §1
# Neu5Ac(a2-6)GalNAc = molecular target: Neu5Ac(a2-6)GalNAc
# In short: as §1
# [24] = molecular target: Neu5Ac(a2-6)GalNAc(b1-4)GlcNAc
# In short: as §1
# Neu5Ac(a2-8)Neu5Ac = molecular target: Neu5Ac(a2-8)Neu5Ac
# In short: as §1
# [25] = molecular target: Neu5Ac(a2-8)Neu5Ac(a2-3)Gal(b1-4)Glc
# In short: as §1
# [26] = molecular target: Neu5Ac(a2-8)Neu5Ac(a2-3)[GalNAc(b1-4)]Gal(b1-4)Glc
# In short: as §1
# [27] = molecular target: Neu5Ac(a2-8)Neu5Ac(a2-8)Neu5Ac
# In short: as §1
# [28] = molecular target: Neu5Ac(a2-8)Neu5Ac(a2-8)Neu5Ac(a2-3)Gal(b1-4)Glc
# In short: as §1
# [29] = molecular target: Neu5Ac(a2-8)Neu5Ac(a2-8)Neu5Ac(a2-3)[GalNAc(b1-4)]Gal(b1-4)Glc
# In short: as §1
# [30] = molecular target: Neu5Ac(a2-8)Neu5Ac(a2-8)Neu5Ac(a2-8)Neu5Ac(a2-3)[GalNAc(b1-4)]Gal(b1-4)Glc
# In short: as §1
# [31] = molecular target: Neu5Ac(b2-6)Gal(b1-4)GlcNAc
# In short: as §1
# Neu5Ac(b2-6)GalNAc = molecular target: Neu5Ac(b2-6)GalNAc
# In short: as §1
# [32] = molecular target: Neu5Ac9Ac(a2-6)Gal(b1-4)GlcNAc
# In short: as §1
# [33] = molecular target: Neu5Gc(a2-3)Gal(b1-3)GlcNAc
# In short: as §1
# [34] = molecular target: Neu5Gc(a2-3)Gal(b1-3)[Fuc(a1-4)]GlcNAc
# In short: as §1
# Neu5Gc(a2-3)Gal(b1-4)Glc = molecular target: Neu5Gc(a2-3)Gal(b1-4)Glc
# In short: as §1
# [35] = molecular target: Neu5Gc(a2-3)Gal(b1-4)GlcNAc
# In short: as §1
# [36] = molecular target: Neu5Gc(a2-3)Gal(b1-4)[Fuc(a1-3)]GlcNAc
# In short: as §1
# [37] = molecular target: Neu5Gc(a2-6)Gal(b1-4)GlcNAc
# In short: as §1
# Neu5Gc(a2-6)GalNAc = molecular target: Neu5Gc(a2-6)GalNAc
# In short: as §1
binder,measurement,setting,value
B1,glycan array binding signal (z-score),Neu5Ac(a2-3)Gal(b1-4)Glc,-0.678
same,glycan array binding signal (z-score),[1],-0.226
same,glycan array binding signal (z-score),[2],-0.487
same,glycan array binding signal (z-score),[3],0.619
same,glycan array binding signal (z-score),[4],-0.446
same,glycan array binding signal (z-score),[5],-0.38
same,glycan array binding signal (z-score),[6],-0.642
same,glycan array binding signal (z-score),[7],-0.267
same,glycan array binding signal (z-score),[8],-0.249
same,glycan array binding signal (z-score),[9],-0.645
same,glycan array binding signal (z-score),[10],0.517
same,glycan array binding signal (z-score),[11],-0.345
same,glycan array binding signal (z-score),[12],0.045
same,glycan array binding signal (z-score),[13],-0.369
same,glycan array binding signal (z-score),[14],-0.101
same,glycan array binding signal (z-score),Neu5Ac(a2-3)GalNAc,-0.424
same,glycan array binding signal (z-score),[15],-0.155
same,glycan array binding signal (z-score),[16],-0.417
same,glycan array binding signal (z-score),[17],-0.468
same,glycan array binding signal (z-score),[18],-0.271
same,glycan array binding signal (z-score),Neu5Ac(a2-6)Gal,-0.915
same,glycan array binding signal (z-score),Neu5Ac(a2-6)Gal(b1-4)Glc,-0.5
same,glycan array binding signal (z-score),[19],-0.424
same,glycan array binding signal (z-score),[20],-0.279
same,glycan array binding signal (z-score),[21],0.039
same,glycan array binding signal (z-score),[22],-0.471
same,glycan array binding signal (z-score),[23],-0.341
same,glycan array binding signal (z-score),Neu5Ac(a2-6)GalNAc,-1.11
same,glycan array binding signal (z-score),[24],0.219
same,glycan array binding signal (z-score),Neu5Ac(a2-8)Neu5Ac,-0.254
same,glycan array binding signal (z-score),[25],-0.385
same,glycan array binding signal (z-score),[26],-0.465
same,glycan array binding signal (z-score),[27],-0.663
same,glycan array binding signal (z-score),[28],-0.227
same,glycan array binding signal (z-score),[29],0.911
same,glycan array binding signal (z-score),[30],0.98
same,glycan array binding signal (z-score),[31],-0.606
same,glycan array binding signal (z-score),Neu5Ac(b2-6)GalNAc,-0.432
same,glycan array binding signal (z-score),[32],-0.102
same,glycan array binding signal (z-score),[33],0.191
same,glycan array binding signal (z-score),[34],-0.343
same,glycan array binding signal (z-score),Neu5Gc(a2-3)Gal(b1-4)Glc,-0.187
same,glycan array binding signal (z-score),[35],-0.328
same,glycan array binding signal (z-score),[36],-0.427
same,glycan array binding signal (z-score),[37],-0.387
same,glycan array binding signal (z-score),Neu5Gc(a2-6)GalNAc,1.03

# 3 entries from above, reformatted.
binder	measurement	setting	value
B1	glycan array binding signal (z-score)	Neu5Gc(a2-3)Gal(b1-4)Glc	-0.187
same	glycan array binding signal (z-score)	[35]	-0.328
same	glycan array binding signal (z-score)	[36]	-0.427

# — the supplement of paper PMC8728848
